Screen size: about 52,000 sequences; about 210 (0.4%) were called active.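 How the source made its calls: active means gene whose silencing raises cell survival under the drug, median off-target-corrected z-score across its silencing RNAs 2 or more; inactive means the rest.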 This is one part of the list.

The test is described as follows: Resistance to Poly (ADP-Ribose) Polymerase inhibitor: Gene Identification via Genome-wide siRNA Screen. Conditions: mouse BRCA2 R2336H ES cells, olaparib, CellTiter-Glo viability; stronger effect = higher value. Summed up:
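Genome-wide siRNA screen (3 siRNAs/gene, 20 nM) in mouse ES cells carrying hypomorphic BRCA2 R2336H; olaparib 500 nM added 48 h post-transfection, CellTiter-Glo viability 72 h later. Normalized to plate-median negative control; MAD z-scores, gene median, seed-adjusted.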
As for “GGAUGGUAGAGUUCCUUUGTT against 5830457H20Rik”, the z-score is inactive: 0.644.
Under CGCAAAGACUUAUAUUGAGTT against AI851076 stands inactive: -0.859; under GCGUUAUAGCCUCAGUGUGTT against Olfr605, inactive: 0.554; under “GGUGACAUGCUGAUUGUUGTT against 9930028C20Rik”, inactive: -0.512.
In the case of GGCCUAUGCACAACUGAAGTT against Slc6a19 it was inactive: -2.64; in that of GGAGUGAAAUAUGGAGUUGTT against BC003479, inactive: 0.573; in that of GGCCAGCGAGAGAGAGAAATT against Msgn1, inactive: -1.97.
Take GGAUUAAACAAGAACAAGATT against Cnksr2: the z-score is inactive: 0.525.
In the case of GGUCGUUUCUAUGAUUGGCTT against Olfr589 it was inactive: -0.857.
In the case of CCCUUAUCAUCGUCAAUAGTT against Rga it was inactive: -0.761; in that of GGAGAAAUUGCCUUUGAUCTT against BC027088, inactive: 0.0838.
In the case of GCAAGCUAAUGAGCUACAATT against AA175286 it was inactive: -0.292.
With GGCGCAUAGGAAUGUGCUUTT against Mynn, the z-score was inactive: -0.625.
In the case of GGAGACCUAAAGAUGAUCATT against Mmab it was inactive: 0.19; in that of GCAUUGUGUGGUUUUGCCATT against Myog, inactive: 0.437; in that of CGACAAGCUGUACCUCUACTT against Rfx5, inactive: -0.254.
Under “GGCUUUAAAGAAUGAUUCATT against 4933411K20Rik” stands inactive: -0.0501; under GGAUAUGUCGGAAAAAGCCTT against Cfh, inactive: -0.27; under “GGAUUUCAUUGGGUUUCUUTT against 2310001A20Rik”, inactive: -0.427.
In the case of GCGACUGUGGUGGUUACAUTT against Bcas2 it was inactive: -0.0243; in that of GUUGUGUUCUGAUUGUUUUTT against Olfr1020, inactive: 0.0983.
As to GCUUCAUGAUGAAUCACCUTT against BC052328, the z-score is inactive: 1.05.
Under GGCUGACUUAUUUCAUUAATT against Dexi stands inactive: 1.25.
Under GCCCGAAGUCCAUGAUAUUTT against Ppm1a stands inactive: 0.809; under CGAGACACGUAGUGAAAGATT against Chrna5, inactive: -1.59; under GGUGCUGAAUUUGAUCAAGTT against Rpa2, inactive: -3.41.
GAAAUCGGCUCAGACAUUUTT against Ssbp2: the z-score was inactive: -0.456.
Turning to GCUACACACGAUUUCAUUCTT against Dolpp1, the z-score is inactive: 0.785.
In the case of “GGAGUUUUAUGGACGAGGATT against 1110060M21Rik” it was inactive: 2.08; in that of GCCUUGUGACAGCAUUAGUTT against Slc6a13, inactive: 0.566; in that of GGUUUUGUCCAGAAGAAUATT against Kl, inactive: 0.691.
As for GGCUUGUUUGAUGUUUGCATT against Ldh2, the z-score was inactive: 0.635.
In the case of GGGAUGGUUCCAUUACUUUTT against Rhcg it was inactive: 2.3.
Under GGCUCUGGAUUACAUAGCCTT against Actn2 stands inactive: -0.294; under CCCUAGCGGAAAUUGUCAATT against Nono, inactive: 0.00602.
Under CCACGUUACAACAUCACCUTT against Hdac11 stands inactive: -0.249.
Turning to GGCUUGGAUCUUGAGCAGATT against Magea6, the z-score was inactive: -0.944.
In the case of CCCUUAUUGCUAGACCUAGTT against Map3k11 it was inactive: -0.0454.
Under CCACCGACUUCUUUUACCCTT against Sephs2 stands inactive: -0.299.
Under CCUCAUAGGCUUGACAAUUTT against Sec5l1 stands inactive: -0.317; under CCUGGUUAUCCAUUAGUGGTT against Tatdn2, inactive: -2.34.
In the case of GGCAAGAAAGUCAUUAGCUTT against Mocs2, the z-score is inactive: -0.567.
In the case of GGAGAAGAAGCUGGACCAGTT against Atp5o it was inactive: 0.29; in that of CCGAUGUCUGAUAGUACAUTT against C3ar1, inactive: -1.17.
In the case of GGGAAUAAAAAGGAUCACUTT against Rab39 it was inactive: 0.657; in that of GGAUCAUAAAAAGAAUCACTT against Gpr21, inactive: 0.833; in that of “GGGAUUACCUCCAGACACATT against 0610010D24Rik”, inactive: 1.42.
Turning to CCAGGUGAGGUUGCUUAACTT against Bri3bp, the z-score was inactive: -0.234.
For the sequence GGGUUGAAAAGAGGUGUCUTT against Cacng8, the z-score was inactive: -0.946.
Under CCCAGCAACUACUGGAAACTT against Tas2r139 stands inactive: -0.186; under “CCAGUCUUGCCCUUUAGUGTT against B130055A05Rik”, inactive: -1.05.
In the case of GGACUUCCAGAGGUACUUGTT against V1re1 it was inactive: 1.62.
In the case of “GCAUUUGUGGCCUAUGCUCTT against 9130210N20Rik” it was inactive: 0.687; in that of “GCUAGAAUACACCAUAGAGTT against A930012M17”, inactive: 1.4; in that of GGAUAUUCACUUUCAUAUGTT against Gulp1, inactive: 0.648.
With “GGACAGUGAAGAGGAUUCCTT against 3200002M19Rik”, the z-score was inactive: -1.03.
In the case of GGUCCUGUGAGUCAUUUGATT against Mrps34 it was inactive: -0.116; in that of GGUUGUGAAUGUAAGUGAGTT against Entpd1, inactive: 0.934.
On to “GGUUCCAUAACCUGUGUCATT against D1Ertd578e”, for which the z-score is inactive: -0.506.
For CCGUCGUUUUGGCCAGUAATT against Tex101, the z-score is inactive: -1.56.
In the case of GCAUACCGGUGUGUCAGUGTT against Lamp1 it was inactive: -1.26; in that of GGUAGAAGAUGAUUACAUCTT against Spock2, inactive: 0.457; in that of GCAUCAAACACUAGGGCAATT against Gpr33, inactive: -0.792.
In the case of GCAACACCAGAGUAUGUUATT against LOC238829 it was inactive: -0.629.
Under “GGUCCGAAAUGAGUUUUACTT against C330021A05Rik” stands inactive: 3.82; under GCGCGCAUUAACUACACGUTT against Zfp82, inactive: -0.204.

These data come from PubChem BioAssay AID1347423 (Functional Genomics Laboratory (NCATS/FGL), 2020).
